Data: PubChem BioAssay AID540276 (National Center for Advancing Translational Sciences (NCATS), 2011)
The whole screen tested about 300,000 compounds, of which about 5,400 (1.8%) were called active. Inconclusive results, whose numbers are uncertain, are shown with a selection of clear calls. Calls follow the shape of the full dose curve; tested in HEK293 cells. Potencies beside an inconclusive call are fits to weak or partial responses and may not hold up.

experiment: qHTS for inhibitors of binding or entry into cells for Marburg Virus; settings: Marburg virus pseudotyped entry inhibition, cell reporter; series mostly up to 37.8 µM
Potency is read from the fitted curve at half-maximal effect.

| Compound | Potency |
| --- | --- |
| Cc1cccc(-n2c(CNC(=O)COc3ccccc3)nnc2SCC(=O)Nc2nccs2)c1 | inconclusive: 11.2 µM [inhibitor, single point] |
| O=c1c2ccccc2nnn1CSc1nnc2sc3ccccc3n12 | inactive |
| CN1C2CC(OC(=O)C(CO)c3ccccc3)CC1C1OC12 (stereo not given) | inconclusive: 0.0224 µM [inhibitor, full curve, poor fit] |
| Cc1ccc(C(C(=O)NC2CCCC2)N(Cc2ccco2)C(=O)CCC(=O)Nc2ccccn2)cc1 (stereo not given) | inconclusive: 17.8 µM [inhibitor, partial curve, poor fit] |
| Cc1ccc(/C=C2\SC(=S)N(CC3CCCO3)C2=O)o1 (stereo not given) | inactive |
| COc1ccc(Cc2nc3ccc(C(=O)NCc4cc(C)no4)cc3o2)cc1 | inactive |
| Cc1cccc(Nc2nc(-c3ccc(O)cc3O)cs2)n1 | inconclusive: 3.55 µM [activator, single point] |
| Fc1cccc(-c2cc3nc4c(c(N5CCC6(CC5)OCCO6)n3n2)CCCC4)c1 | inconclusive: 29.1 µM [inhibitor, single point] |
| O=C(NCc1cccnc1)C1c2ccccc2C(=O)N1Cc1ccco1 (stereo not given) | inactive |
| COC(=O)CC1c2ccccc2C=C(C2CC2)N1C(=O)OC (stereo not given) | inconclusive: 5.96 µM [inhibitor, single point] |
| CN(Cc1cc2ccccc2[nH]c1=O)C(=O)C1CCCCC1 | inconclusive: 3.16 µM [activator, single point] |
| Cc1cc(C)c(S(=O)(=O)NC(C)C)c(C)c1-n1cnnn1 | inconclusive: 35.5 µM [inhibitor, single point] |
| Cc1cccc2c1OCC/C2=N\NC(=O)COc1ccccc1 | inconclusive: 23.1 µM [activator, single point] |
| O=C(CCNC(=O)c1ccccc1Cl)Nc1nc2ccccc2[nH]1 | inactive |
| CN1CCN(CCCNC(=O)c2ccc(Cn3c(=S)[nH]c4ccc(Br)cc4c3=O)cc2)CC1 | inconclusive: 0.794 µM [inhibitor, single point] |
| Cc1ccc(S(=O)(=O)N2CCCCC2)cc1C(=O)N1C(C)CCCC1C (stereo not given) | inconclusive: 0.282 µM [activator, full curve, poor fit] |
| CC(=O)NS(=O)(=O)c1ccc(N=c2ssc3c2-c2cc(C)ccc2NC3(C)C)cc1 | inconclusive: 1.26 µM [inhibitor, single point] |
| CC(Cc1ccccc1)N1C(=O)c2cccc([N+](=O)[O-])c2C1=O (stereo not given) | inactive |
| COc1cccc(OCc2cc(C(=O)N3CCN(c4ccccc4O)CC3)no2)c1 | inactive |
| O=C(O)CCN1C(=O)c2ccncc2C1=O | inactive |
| C=CCOc1ccccc1CN1CCC(Oc2ccc(C(=O)N3CCCCC3)cc2)CC1 | active: 3.16 µM |
| CCOC(=O)CSc1cc(C)nc(NC(C)=O)n1 | inconclusive: 0.206 µM [inhibitor, full curve, poor fit] |
| O=C(Nc1cccc(F)c1)/C(=C\c1cccnc1)NC(=O)c1ccco1 | inactive |

3 compounds from above, arranged by formula weight, high to low.

| Compound | Potency |
| --- | --- |
| COc1ccc(Cc2nc3ccc(C(=O)NCc4cc(C)no4)cc3o2)cc1 | inactive |
| O=C(CCNC(=O)c1ccccc1Cl)Nc1nc2ccccc2[nH]1 | inactive |
| CCOC(=O)CSc1cc(C)nc(NC(C)=O)n1 | inconclusive: 0.206 µM [inhibitor, full curve, poor fit] |

The list continues:

| Compound | Potency |
| --- | --- |
| CC1CC(C)CN(CC(O)COCCOc2ccc(Br)cc2)C1 (stereo not given) | active: 13 µM |
| COC(=O)C1=C(Nc2ccc(OC)cc2)C=C(C)C(C(=O)OC)C1c1ccc(C)cc1 (stereo not given) | inconclusive: 20 µM [inhibitor, partial curve, poor fit] |
| Cc1cccc(-c2nc(S(=O)(=O)c3ccc(Cl)cc3)c(N3CCCCCC3)o2)c1 | inconclusive: 3.55 µM [inhibitor, partial curve, poor fit] |
| CCCOc1cc(N(CC)CC)ccc1/C=C(/C#N)c1nc2ccc(C)cc2[nH]1 | inconclusive: 35.5 µM [inhibitor, partial curve, poor fit] |
| Cc1cc(N2CCOCC2)nc2ccc(NC(=S)N3CCN(Cc4ccccc4)CC3)cc12 | inconclusive: 28.2 µM [inhibitor, single point] |
| COc1ccccc1N1CCN(C(=O)c2sc3nc(-c4ccccc4)cn3c2C)CC1 | inconclusive: 18.3 µM [inhibitor, single point] |
| CCN(CC)c1nc2c(S(=O)(=O)c3ccccc3)nnn2c2ccc(Cl)cc12 | inconclusive: 22.4 µM [inhibitor, partial curve, poor fit] |
| COc1cccc(CNc2ccc(F)c([N+](=O)[O-])c2)c1O | inconclusive: 14.1 µM [inhibitor, single point] |
| CCN1CCN(c2cc(C)c3cc(NC(=S)N(C)Cc4ccccc4)ccc3n2)CC1 | inconclusive: 10 µM [inhibitor, partial curve, poor fit] |
| Cc1ccc2nc(NC(=O)CCNS(=O)(=O)c3cccs3)sc2c1 | inactive |
| O=C(O)c1cccc2c1C(=O)N(c1ccccc1)C2 | inconclusive: 5.62 µM [activator, single point] |
| CC(=O)C1=NOC(CNc2ncc(C(F)(F)F)cc2Cl)C1 (stereo not given) | inactive |
| COCCNC(=O)C(c1ccc(F)cc1)N(CCOC)C(=O)CCC(=O)Nc1nccs1 (stereo not given) | inconclusive: 0.112 µM [activator, full curve, poor fit] |
| COC(=O)c1ccc(NC(=O)CSc2nnc(COc3ccccc3)n2C)cc1 | inactive |
| COC(C(=O)N/N=C(\C)c1ccc(C)cc1)c1ccccc1 (stereo not given) | inactive |
| Cn1ncc2c1ncn1nc(COc3ccc4ccccc4c3)nc21 | inactive |
| CCN(c1ccc(NC(=O)COC(=O)c2cccs2)cc1)C(C)C | inactive |
| O=C(c1ccco1)N1CCN(CCCCOc2ccc(F)cc2)CC1 | inconclusive: 0.562 µM [activator, partial curve, poor fit] |
| CCCCCCn1c(COc2ccccc2F)nnc1SCC(=O)NC1CCS(=O)(=O)C1 (stereo not given) | inactive |
| CCOC(=O)c1[nH]c2ccc(Cl)cc2c1NC(=O)/C=C/c1ccc2c(c1)OCO2 | inconclusive: 7.08 µM [inhibitor, partial curve, poor fit] |
| O=C(Nc1ccc(C(=O)N2CCOCC2)cc1)c1ccccc1 | inconclusive: 31.5 µM [activator, single point] |
| CN(CC(=O)Nc1ccncc1)S(=O)(=O)c1ccccc1 | inconclusive: 0.562 µM [activator, partial curve, poor fit] |
